According to the supplement of paper PMC8551327:
Where a name gives a salt, the structure may show the parent alone. The list shows a part of the results. Cut-off read from the data, not from the text of the source: active = 1.25 or more and inactive = the rest. Repeats are few or missing, and single values can be far off.

Test system: Kcc2-LUC knock-in mouse primary cortical neurons (Kcc2 promoter reporter)
Assay: Kcc2 promoter-driven luciferase activity relative to vehicle control (fold of vehicle (ratio)); higher = stronger Kcc2 promoter activation (Kcc2 expression enhancer)
Conditions: 100 nM; 48 h

Row | Structure (SMILES) | Kcc2 promoter-driven luciferase activity
1 | CC(Cl)[C@@]1(O)C[C@@H](C)[C@@](C)(O)C(=O)OCC2=CCN3CC[C@@H](OC1=O)[C@@H]23 (stereo partly drawn) [Jaconine Hydrochloride] | inactive: 1.01
2 | C[Si](C)(CN)CN.[Cl][Pt][Cl] [Platinum, (SP-4-2)] | inactive: 1.03
3 | CCC[CH2][Sn]1([CH2]CCC)[S]CC[N]1S(=O)(=O)c1ccc(C)cc1 | inactive: 0.99
4 | [O-][Cl+3]([O-])([O-])[O-].c1ccc(-c2csc3c4ccccc4c4ccccc4[n+]23)cc1 [3-phenyl-[1,3]thiazolo[3,2-f]phenanthridin-4-ium;perchlorate] | inactive: 0.91
5 | CC[C@@]1(O)C[C@H](OC2CC(N(C)C)C(O)C(C)O2)c2c(O)c3c(c(O)c2[C@H]1OC1CC(N(C)C)C(O)C(C)O1)C(=O)c1cccc(O)c1C3=O (stereo partly drawn) | inactive: 1.12
6 | CC(C)(O)[C@@H]1[C@H]2OC(=O)[C@@H]1[C@]1(O)C[C@H]3O[C@]34C(=O)O[C@H]2[C@]14C [Picrotin] | inactive: 0.55
7 | CC1CC(C)(O)CC(C(O)CC2CC(=O)NC(=O)C2)C1=O (stereo not drawn) [Streptovitacin A] | inactive: 0.262
8 | CN1C(=O)[C@]23CC4=CC=C[C@H](O)[C@H]4N2C(=O)[C@@]1(CO)SS3 [Gliotoxin] | inactive: 0.64
9 | O=C1N[C@@H]2C(=C[C@H](O)[C@@H](O)[C@H]2O)c2cc3c(cc21)OCO3 [Lycoricidine] | inactive: 1.12
10 | CC(=O)[O][Sn]([CH2]c1ccccc1)([CH2]c1ccccc1)[CH2]c1ccccc1 [Tribenzyltin acetate] | inactive: 0.7
11 | Cc1cc[c]([Sb]2[O]C(CO)C(C(O)C(O)C(=O)O)[O]2)cc1.O.O (stereo not drawn) | inactive: 0.52
12 | COc1c2c(c(CC=C(C)C)c3oc(=O)c(-c4ccc(O)cc4)c(O)c13)OC(C)(C)C=C2 [Lonchocarpic Acid] | inactive: 1.25
13 | COc1cccc2c1C(=O)c1c(O)c3c(c(O)c1C2=O)C[C@@](O)(C(C)=O)C[C@@H]3O[C@H]1C[C@H](N(Cc2ccccc2)Cc2ccccc2)[C@H](O)[C@H](C)O1 [N,N-Dibenzyldaunorubicin hydrochloride] | inactive: 1.1
14 | C[C@H]1CCC/C=C/[C@@H]2C[C@H](O)C[C@H]2[C@H](O)/C=C/C(=O)O1 [Brefeldin A] | inactive: 1.04
15 | S=C=NCc1ccccc1 [Benzyl Isothiocyanate] | active: 1.42
16 | CO[C@H]1[C@@H](O)[C@@H](C)O[C@H](O[C@H]2[C@H](Oc3cccc4c(O)c5c(=O)oc6ccc(C)c7c(=O)oc(c34)c5c67)O[C@H](C)[C@H](O)[C@@H]2O)[C@@H]1O [Chartreusin] | inactive: 0.73
17 | COCC1O[C@H](O[C@@H]2C3=C(C(C)C)CC[C@]3(C)/C=C3\[C@@H](CC[C@]3(O)COC)[C@@H](C)[C@H]2O)C(O)C2OC3O[C@]12O[C@@]3(C)C1CO1 (stereo partly drawn) [Cotylenin A] | inactive: 1.19
18 | COc1cc2c3cc1Oc1c(OC)c(OC)cc4c1C(Cc1ccc(cc1)Oc1cc(ccc1O)CC3N(C)CC2)N(C)CC4 (stereo not drawn) [Oxycanthine] | inactive: 0.81

Retrieved by compound from the entries so far (two):
Row | Structure (SMILES) | Kcc2 promoter-driven luciferase activity
17 | COCC1O[C@H](O[C@@H]2C3=C(C(C)C)CC[C@]3(C)/C=C3\[C@@H](CC[C@]3(O)COC)[C@@H](C)[C@H]2O)C(O)C2OC3O[C@]12O[C@@]3(C)C1CO1 (stereo partly drawn) [Cotylenin A] | inactive: 1.19
16 | CO[C@H]1[C@@H](O)[C@@H](C)O[C@H](O[C@H]2[C@H](Oc3cccc4c(O)c5c(=O)oc6ccc(C)c7c(=O)oc(c34)c5c67)O[C@H](C)[C@H](O)[C@@H]2O)[C@@H]1O [Chartreusin] | inactive: 0.73
